PubChem BioAssay AID1259254 | NCATS – 2017
Test: 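Finding genes that stop cells copying their DNA twice in one cycle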 (primary screen). Cells: human HCT116 colorectal cancer cells. Reagent: single siRNA against human genes. Time to read-out: 3 days. Read-out: 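Nuclei stained with Hoechst and imaged; cell-cycle phase assigned by DNA content; G2 share scaled per plate, non-targeting siRNA 0%, GMNN siRNA 100%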. Reading the numbers: G2 robust z-score and G2 cells, % of GMNN control: higher = more G2 cells, more excess DNA replication; raw share of cells in G2: higher = larger share of cells with G2 DNA content. Call rule: 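Active siRNAs have a G2 robust z of 5 or more median absolute deviations over the median, which in these data means about 38% or higher of GMNN control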.
Shown is one part, drawn at random, of about 59,000 reagents tested. About 1,550 of all reagents (2.6%) count as active. 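G2 share is only a proxy for re-replication; each gene was hit by three separate siRNAs, and active genes were retested.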 Raw values vary from plate to plate and are shown uncorrected. Entries without a mark were called inactive. The numbers tell different reagents against one gene apart. Not given: the amount of reagent.

| Target gene | reagent no. | G2 robust z-score | G2 cells, % of GMNN control | raw share of cells in G2 (%) |
| --- | --- | --- | --- | --- |
| INHBC (inhibin subunit beta C) | 1 | 3.64 | 28.5 | 14.7 |
| INHBC (inhibin subunit beta C) | 2 | -0.085 | 2.37 | 5.9 |
| INHBC (inhibin subunit beta C) | 3 | -0.572 | -1.05 | 5.28 |
| ZC3H12C (zinc finger CCCH-type containing 12C) | 1 | 1.09 | 10.6 | 8.59 |
| ZC3H12C (zinc finger CCCH-type containing 12C) | 2 | 2.64 | 21.6 | 9.76 |
| ZC3H12C (zinc finger CCCH-type containing 12C) | 3 | -0.179 | 1.71 | 3.47 |
| ABHD17B (abhydrolase domain containing 17B, depalmitoylase) | 1 | -1.11 | -4.82 | 2.01 |
| ABHD17B (abhydrolase domain containing 17B, depalmitoylase) | 2 | -0.887 | -3.27 | 3.31 |
| ABHD17B (abhydrolase domain containing 17B, depalmitoylase) | 3 | 5.14 (active) | 39.1 | 15.6 |
| BCS1L (BCS1 ubiquinol-cytochrome c reductase complex chaperone) | 1 | 0.455 | 6.17 | 6.29 |
| BCS1L (BCS1 ubiquinol-cytochrome c reductase complex chaperone) | 2 | -0.486 | -0.451 | 4.57 |
| BCS1L (BCS1 ubiquinol-cytochrome c reductase complex chaperone) | 3 | -1.48 | -7.47 | 2.41 |
| TMEM216 (transmembrane protein 216) | 1 | 0.103 | 3.69 | 5.26 |
| TMEM216 (transmembrane protein 216) | 2 | 4.66 | 35.7 | 18.1 |
| TMEM216 (transmembrane protein 216) | 3 | 0.041 | 3.26 | 4.28 |
| DHX29 (DExH-box helicase 29) | 1 | -0.108 | 2.21 | 5.06 |
| DHX29 (DExH-box helicase 29) | 2 | 1.18 | 11.3 | 8.13 |
| DHX29 (DExH-box helicase 29) | 3 | 0.494 | 6.44 | 8.88 |
| ABCC1 | 1 | -0.17 | 1.77 | 3.78 |
| ABCC1 | 2 | -0.693 | -1.91 | 4.62 |
| ABCC1 | 3 | 0.58 | 7.05 | 8.27 |
| IL21 (interleukin 21) | 1 | 2.52 | 20.7 | 12.5 |
| IL21 (interleukin 21) | 2 | 3.57 | 28.1 | 17.9 |
| IL21 (interleukin 21) | 3 | -0.245 | 1.24 | 3.42 |

Not a retest: entries from further up.
| Target gene | reagent no. | G2 robust z-score | G2 cells, % of GMNN control | raw share of cells in G2 (%) |
| --- | --- | --- | --- | --- |
| ZC3H12C (zinc finger CCCH-type containing 12C) | 1 | 1.09 | 10.6 | 8.59 |
| ZC3H12C (zinc finger CCCH-type containing 12C) | 2 | 2.64 | 21.6 | 9.76 |
| ZC3H12C (zinc finger CCCH-type containing 12C) | 3 | -0.179 | 1.71 | 3.47 |

The results go on:
| Target gene | reagent no. | G2 robust z-score | G2 cells, % of GMNN control | raw share of cells in G2 (%) |
| --- | --- | --- | --- | --- |
| KDM4C (lysine demethylase 4C) | 1 | 0.672 | 7.7 | 6.05 |
| KDM4C (lysine demethylase 4C) | 2 | -0.45 | -0.2 | 4.91 |
| KDM4C (lysine demethylase 4C) | 3 | 1.12 | 10.8 | 8.61 |
| PTMAP11 (prothymosin alpha pseudogene 11) | 1 | -0.241 | 1.27 | 3.55 |
| PTMAP11 (prothymosin alpha pseudogene 11) | 2 | 3.6 | 28.3 | 14.6 |
| PTMAP11 (prothymosin alpha pseudogene 11) | 3 | -0.504 | -0.581 | 3.2 |
| GABRE (gamma-aminobutyric acid type A receptor subunit epsilon) | 1 | -0.254 | 1.18 | 5.72 |
| GABRE (gamma-aminobutyric acid type A receptor subunit epsilon) | 2 | -0.47 | -0.341 | 4.67 |
| GABRE (gamma-aminobutyric acid type A receptor subunit epsilon) | 3 | 0.0412 | 3.26 | 5.65 |
| TNFAIP3 (TNF alpha induced protein 3) | 1 | 3.87 | 30.2 | 16.2 |
| TNFAIP3 (TNF alpha induced protein 3) | 2 | 3.84 | 30 | 16.2 |
| TNFAIP3 (TNF alpha induced protein 3) | 3 | 0.288 | 4.99 | 6.47 |
| RPS6KL1 (ribosomal protein S6 kinase like 1) | 1 | -0.703 | -1.98 | 4.97 |
| RPS6KL1 (ribosomal protein S6 kinase like 1) | 2 | 1.62 | 14.4 | 10.4 |
| RPS6KL1 (ribosomal protein S6 kinase like 1) | 3 | -0.946 | -3.69 | 2.5 |
| LEPROT (leptin receptor overlapping transcript) | 1 | 0.0739 | 3.49 | 5.14 |
| LEPROT (leptin receptor overlapping transcript) | 2 | -0.76 | -2.38 | 3.36 |
| LEPROT (leptin receptor overlapping transcript) | 3 | -1.38 | -6.75 | 2.89 |
| ELOVL2 (ELOVL fatty acid elongase 2) | 1 | 0.433 | 6.01 | 9.06 |
| ELOVL2 (ELOVL fatty acid elongase 2) | 2 | 0.877 | 9.14 | 7.71 |
| ELOVL2 (ELOVL fatty acid elongase 2) | 3 | 1.71 | 15 | 10.6 |
| MAMDC4 (MAM domain containing 4) | 1 | 4.45 | 34.3 | 15.9 |
| MAMDC4 (MAM domain containing 4) | 2 | 0.148 | 4.01 | 4.3 |
| MAMDC4 (MAM domain containing 4) | 3 | 3.87 | 30.2 | 12.3 |
| LINC00304 (long independently transcribed non-coding RNA 304) | 1 | -0.516 | -0.663 | 3.4 |
| LINC00304 (long independently transcribed non-coding RNA 304) | 2 | 0.311 | 5.16 | 5.04 |
| LINC00304 (long independently transcribed non-coding RNA 304) | 3 | -0.554 | -0.934 | 2.98 |
| EEF1DP6 | 1 | 0.352 | 5.45 | 5.23 |
| EEF1DP6 | 2 | -0.157 | 1.86 | 3.69 |
| EEF1DP6 | 3 | -0.524 | -0.717 | 3.37 |
| SKAP1 (src kinase associated phosphoprotein 1) | 1 | 0.417 | 5.9 | 7.42 |
| SKAP1 (src kinase associated phosphoprotein 1) | 2 | -0.37 | 0.367 | 5.32 |
| SKAP1 (src kinase associated phosphoprotein 1) | 3 | -0.971 | -3.87 | 2.44 |
| NPPB (natriuretic peptide B) | 1 | -0.884 | -3.25 | 2.09 |
| NPPB (natriuretic peptide B) | 2 | 5.84 (active) | 44 | 22.6 |
| NPPB (natriuretic peptide B) | 3 | -0.583 | -1.14 | 4.77 |
| DRG1 (developmentally regulated GTP binding protein 1) | 1 | 0.187 | 4.28 | 7.17 |
| DRG1 (developmentally regulated GTP binding protein 1) | 2 | -0.0991 | 2.27 | 6.24 |
| DRG1 (developmentally regulated GTP binding protein 1) | 3 | 1.02 | 10.1 | 6.53 |
| OR52K2 (olfactory receptor family 52 subfamily K member 2) | 1 | -0.00853 | 2.91 | 5.26 |
| OR52K2 (olfactory receptor family 52 subfamily K member 2) | 2 | -0.26 | 1.14 | 3.67 |
| OR52K2 (olfactory receptor family 52 subfamily K member 2) | 3 | -0.778 | -2.5 | 1.09 |
| DIAPH3 (diaphanous related formin 3) | 1 | -0.51 | -0.618 | 3.9 |
| DIAPH3 (diaphanous related formin 3) | 2 | 2.74 | 22.3 | 10.1 |
| DIAPH3 (diaphanous related formin 3) | 3 | -0.263 | 1.12 | 2.74 |
